# ± gives the standard deviation. This is a selection; strong and weak results do not stand in their true shares. Many of these values have a large error.
# Tested on: MIWI (PIWIL1) piRISC loaded with Kctd7 piRNA (30 nt)
# Assay: pre-steady-state target cleavage rate (min^-1); MIWI and MILI are mouse PIWI proteins and EfPiwi is from a freshwater sponge; tags in brackets are library labels; higher = faster piRNA-guided slicing of the target
# Details: guide: Kctd7 piRNA 5'p-UGUUAAUCUCUCAGAGAAGGUGACAGUGAU; auxiliary factor: 500 nM mouse GTSF1
# Description: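 Cleave-'n-Seq: a library of target RNAs (target site embedded in constant flanks, ACAGCATTCCGCGTTAGTGATATCCG... 5' flank; DNA-blocked outside the site) at 0.1 nM was incubated with 1 nM active mouse MILI or MIWI piRISC (synthetic 5'-monophosphorylated piRNA guide) with or without 500 nM mouse GTSF1 at 33 °C for 1 min to 16 h. Uncleaved targets were sequenced and normalised to non-target controls, and the pooled three trials were fitted to a burst-and-steady-state model to give the pre-steady-state cleavage rate (min^-1; k3 is constrained to at most 1e-4). Sequence is the target site only; target names encode pairing extent (gX:gY) and contiguous / 1-mismatch / 2-mismatch / bulge geometry. Fits with R² ≤ 0 are excluded.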
row,Sequence,pre-steady-state target cleavage rate
1,UAGACUGAGUCCUUCUCUGAGAGAUUUUGA,0.000519 ± 0.01
2,UACACUGUCACCUUCUCUGAGAGAUUAACU [g2:g28:cont:t1U],0.494 ± 0.059
3,UAGUGACAGACCUUCACUGAGAGAUUAUGA,0.00106 ± 0.014
4,UAGUGACAGAGCUACUCUGAGAGAUUAACA,0.000961 ± 0.0069
5,UAGUGACACACCUUCUCUGAGAGAAAAUGA,0.00219 ± 0.0053
6,UAGUGACAGACCUUCACUGAGAGUUUAACA,0.0305 ± 0.011
7,UAGUGACAGUGGAAGUCUGAGAUAUUAACA,< 0.0001
8,UAGUCUGUCACCUUCUCUGACUCAUUAAGA,0.000921 ± 0.0048
9,UAGUGACAGUGGUCUCUCUGAGAGAUUAACA,0.000533 ± 0.013
10,UAGUCUCUCACCUUCUGUGAGAGAUUAACA,0.00482 ± 0.0046
11,UAGUGACAGUGGAACUCUGAAGAGAUUAACA,0.000175 ± 0.03
12,UAGUGACUCACCUUCUCUGAGUCUUUUUGA,0.000431 ± 0.026
13,UUCACGUCACCUUCUCUGAGAGAUUAACA,0.702 ± 0.03
14,UAGUGACAGACCUUCUCUAGAGAUUAACA,0.00339 ± 0.0054
15,UAGUGACAGUCCUUUCUGAGAGAUUAACA,0.00238 ± 0.0037
16,AUCACUGUCACCUUCUCUGAGAGAUUAACU [g2:g30:cont:t1U],0.526 ± 0.057
17,UAGUGACUCACCUUGAGUGAGAGAUUAUGA,0.000463 ± 0.023
18,UAGUCUGUCAGGUUCUCUGAGAGAUAUUGA,0.000411 ± 0.013
19,UAGUGAGUCACCUUGACUGAGAGAUAUUGA,0.000664 ± 0.011
20,UAGUGACAGUCCUAGUCUGAGAGAUUAACA,0.00106 ± 0.0076
21,UAGACUGUCACCUUCUCUGAGAGAUUAACC [g2:g27:cont:t1C],0.322 ± 0.03
22,UAGUCUGUCACCUUCUCACUGAGAUAUUGA,0.00131 ± 0.0076
23,UUCACUGUCUCCUUCUCUGAGAGAUUAUGA,0.122 ± 0.034

# Laid out differently: entries from further up.
row	Sequence	pre-steady-state target cleavage rate
13	UUCACGUCACCUUCUCUGAGAGAUUAACA	0.702 ± 0.03
14	UAGUGACAGACCUUCUCUAGAGAUUAACA	0.00339 ± 0.0054
15	UAGUGACAGUCCUUUCUGAGAGAUUAACA	0.00238 ± 0.0037
16	AUCACUGUCACCUUCUCUGAGAGAUUAACU [g2:g30:cont:t1U]	0.526 ± 0.057
17	UAGUGACUCACCUUGAGUGAGAGAUUAUGA	0.000463 ± 0.023
18	UAGUCUGUCAGGUUCUCUGAGAGAUAUUGA	0.000411 ± 0.013
19	UAGUGAGUCACCUUGACUGAGAGAUAUUGA	0.000664 ± 0.011
20	UAGUGACAGUCCUAGUCUGAGAGAUUAACA	0.00106 ± 0.0076

# (list continues)

row,Sequence,pre-steady-state target cleavage rate
1,UAGUGACAGACCUUCUCUGUCAGAUUAACA,0.00289 ± 0.0044
2,UUCACUGUCACCUUCUCUGACUCAUUUUGA,0.00173 ± 0.0046
3,UAGUGACACACCUUCUCUCUCAGAUUUUGA,0.000782 ± 0.016
4,UAGUGACUCACCUUGUCUGAGAGAUAUUGA,0.000937 ± 0.0068
5,UAGUGACAGUGGAUCUCUGAGACAUUUACA,0.000148 ± 0.029
6,UAGUGACAGACCUUCUCUGACACAUUAACA,0.00122 ± 0.0077
7,UAGUGACAGUCCUUCUCUCUCAGAUUAACA,0.000536 ± 0.013
8,UAGUGACAGUGGAAGAGACAGAGAAUAUCA,0.000355 ± 0.022
9,UAGUGACUCACCUUCUCUGAGUGAUAAACA,0.0392 ± 0.007
10,UAGACUGUCACCUUCUCUGAAGAGAUUAACA,0.00161 ± 0.0047
11,UAGUGACUGACCUUCUCUGAGAGAUUAUGA,0.00985 ± 0.0048
12,UAGUGACAGUCCAUCACUGAGAGAUUAACA,0.00137 ± 0.0069
13,UAGUGACAGUCCUUCUCUGAGUCAUUAAGA,0.000113 ± 0.023
14,UAGUGAGUCACCUUGAGUGAGAGAUAUUGA,0.00107 ± 0.007
15,UAGACUGUCGCCUUCUCUGAGAGAUUAACA,0.822 ± 0.064
16,UAGUGUGUCACGAUCUCUGAGAGAUUUUGA,0.0018 ± 0.0054
17,UACACUGUCACGAUCUCUGAGAGAUAUUGA,0.000865 ± 0.01
18,UAGACUGUCAGCUUCUCUGAGAGUUUAACA,0.0686 ± 0.011
19,UAGACUGUCACCUUCUCACAGAGAUUAUGA,0.00106 ± 0.0065
20,UAGUGACAGUGCUUCUCUGAGAGAAUUAACA,0.00265 ± 0.0031
21,UAGUGACACACCUUCUCUGAGACUUUUUGA,0.000268 ± 0.019
22,UAGUGACAGUCCUACUCUGAGUGAUUAACA,0.0011 ± 0.0069
